Reference: PubChem BioAssay AID1224830 (NIAID, 2016)

Purpose: 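Regulators of TLR4 signalling towards TNF-alpha in macrophage-like cells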 (primary screen)
Cells: human THP-1 monocytic leukaemia cells, TNF dual-luciferase reporter clone, PMA-differentiated to macrophage-like cells
Reagent: siRNA pool against human genes, 50 nM
Duration: LPS for 4 h, given about 3 days after siRNA transfection
Treatment: bacterial LPS (TLR4 ligand), 10 ng/ml
Measured: 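Ratio of firefly to renilla light, scaled to the plate median and expressed as a robust z-score per replicate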
Reading the numbers: TNF reporter robust z-score: higher = stronger TNF reporter response to LPS
Active means: 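a well is active when its z-score exceeds 2.8 or falls below -1.5; control wells carry no call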
The whole screen tested about 18,000 reagents; this is an unselected part. About 2,900 of them (16%) were called active. 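Calls are made per well; low scores hint the gene aids the LPS response, high scores that it dampens it.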 Repeated entries: four replicate wells of each siRNA pool.

target gene | TNF reporter robust z-score | Call
IGF2BP1 (insulin like growth factor 2 mRNA binding protein 1) | 1.92 | inactive
IGF2BP1 (insulin like growth factor 2 mRNA binding protein 1) | 1.08 | inactive
IGF2BP1 (insulin like growth factor 2 mRNA binding protein 1) | 1.49 | inactive
IGF2BP1 (insulin like growth factor 2 mRNA binding protein 1) | 2.7 | inactive
DERL2 (derlin 2) | -1.2 | inactive
DERL2 (derlin 2) | -1.25 | inactive
DERL2 (derlin 2) | -1.21 | inactive
DERL2 (derlin 2) | -0.86 | inactive
GARIN4 (golgi associated RAB2 interactor family member 4) | -0.93 | inactive
GARIN4 (golgi associated RAB2 interactor family member 4) | -0.49 | inactive
GARIN4 (golgi associated RAB2 interactor family member 4) | -0.54 | inactive
GARIN4 (golgi associated RAB2 interactor family member 4) | -0.89 | inactive
TBC1D7 (TBC1 domain family member 7) | – | inactive
TBC1D7 (TBC1 domain family member 7) | -0.38 | inactive
TBC1D7 (TBC1 domain family member 7) | -0.43 | inactive
TBC1D7 (TBC1 domain family member 7) | 0.42 | inactive
TBC1D7 (TBC1 domain family member 7) | -0.49 | inactive
TIMM17B (translocase of inner mitochondrial membrane 17B) | – | inactive
TIMM17B (translocase of inner mitochondrial membrane 17B) | -0.79 | inactive
TIMM17B (translocase of inner mitochondrial membrane 17B) | -0.59 | inactive
TIMM17B (translocase of inner mitochondrial membrane 17B) | -1.03 | inactive
TIMM17B (translocase of inner mitochondrial membrane 17B) | -0.9 | inactive
IMPA2 (inositol monophosphatase 2) | -1.19 | inactive
IMPA2 (inositol monophosphatase 2) | -0.5 | inactive
IMPA2 (inositol monophosphatase 2) | -0.75 | inactive
IMPA2 (inositol monophosphatase 2) | -0.41 | inactive
RLIG1 (RNA 5'-phosphate and 3'-OH ligase 1) | 1.19 | inactive
RLIG1 (RNA 5'-phosphate and 3'-OH ligase 1) | 1.22 | inactive
RLIG1 (RNA 5'-phosphate and 3'-OH ligase 1) | 1.13 | inactive
RLIG1 (RNA 5'-phosphate and 3'-OH ligase 1) | 1.56 | inactive
MRPL4 (mitochondrial ribosomal protein L4) | -1 | inactive
MRPL4 (mitochondrial ribosomal protein L4) | -0.87 | inactive
MRPL4 (mitochondrial ribosomal protein L4) | -0.83 | inactive
MRPL4 (mitochondrial ribosomal protein L4) | -0.31 | inactive
ADGRG5 (adhesion G protein-coupled receptor G5) | -0.37 | inactive
ADGRG5 (adhesion G protein-coupled receptor G5) | 0.67 | inactive
ADGRG5 (adhesion G protein-coupled receptor G5) | -0.29 | inactive
ADGRG5 (adhesion G protein-coupled receptor G5) | -1.09 | inactive
IL26 (interleukin 26) | -0.36 | inactive
IL26 (interleukin 26) | -0.64 | inactive
IL26 (interleukin 26) | -0.52 | inactive
IL26 (interleukin 26) | 0.22 | inactive
TCFL5 (transcription factor like 5) | -0.76 | inactive
TCFL5 (transcription factor like 5) | -0.35 | inactive
TCFL5 (transcription factor like 5) | 0.52 | inactive
TCFL5 (transcription factor like 5) | 0.34 | inactive
CENPBD1P (CENPB DNA-binding domain containing 1, pseudogene) | -0.15 | inactive
CENPBD1P (CENPB DNA-binding domain containing 1, pseudogene) | -0.73 | inactive
CENPBD1P (CENPB DNA-binding domain containing 1, pseudogene) | 0.25 | inactive
CENPBD1P (CENPB DNA-binding domain containing 1, pseudogene) | -0.54 | inactive
KCNH6 (potassium voltage-gated channel subfamily H member 6) | 0.75 | inactive
KCNH6 (potassium voltage-gated channel subfamily H member 6) | -0.66 | inactive
KCNH6 (potassium voltage-gated channel subfamily H member 6) | -0.5 | inactive
KCNH6 (potassium voltage-gated channel subfamily H member 6) | 1.81 | inactive
CROCC (ciliary rootlet coiled-coil, rootletin) | -0.09 | inactive
CROCC (ciliary rootlet coiled-coil, rootletin) | 0.12 | inactive
CROCC (ciliary rootlet coiled-coil, rootletin) | -0.14 | inactive
CROCC (ciliary rootlet coiled-coil, rootletin) | 0.17 | inactive
TRIM56 (tripartite motif containing 56) | 4.37 | active
TRIM56 (tripartite motif containing 56) | 1.18 | inactive
TRIM56 (tripartite motif containing 56) | 2.18 | inactive
TRIM56 (tripartite motif containing 56) | 3.26 | active
SYS1 (SYS1 golgi trafficking protein) | -0.15 | inactive
SYS1 (SYS1 golgi trafficking protein) | -0.47 | inactive
SYS1 (SYS1 golgi trafficking protein) | 0.05 | inactive
SYS1 (SYS1 golgi trafficking protein) | -0.44 | inactive
CLIC2 (CLIC family member 2) | -0.2 | inactive
CLIC2 (CLIC family member 2) | 0.53 | inactive
CLIC2 (CLIC family member 2) | 0.17 | inactive
CLIC2 (CLIC family member 2) | -0.14 | inactive
MRPL45 (mitochondrial ribosomal protein L45) | 0.91 | inactive
MRPL45 (mitochondrial ribosomal protein L45) | 2.39 | inactive
MRPL45 (mitochondrial ribosomal protein L45) | -0.42 | inactive
MRPL45 (mitochondrial ribosomal protein L45) | 1.33 | inactive
NFXL1 (nuclear transcription factor, X-box binding like 1) | 0.18 | inactive
NFXL1 (nuclear transcription factor, X-box binding like 1) | 0.57 | inactive
NFXL1 (nuclear transcription factor, X-box binding like 1) | -0.66 | inactive
NFXL1 (nuclear transcription factor, X-box binding like 1) | -0.4 | inactive
AMBP (alpha-1-microglobulin/bikunin precursor) | 2.49 | inactive
AMBP (alpha-1-microglobulin/bikunin precursor) | 3.1 | active
AMBP (alpha-1-microglobulin/bikunin precursor) | 1.4 | inactive
AMBP (alpha-1-microglobulin/bikunin precursor) | 3.48 | active
OR4F16 (olfactory receptor family 4 subfamily F member 16) | 1.13 | inactive
OR4F16 (olfactory receptor family 4 subfamily F member 16) | -0.72 | inactive
OR4F16 (olfactory receptor family 4 subfamily F member 16) | -0.04 | inactive
OR4F16 (olfactory receptor family 4 subfamily F member 16) | 1.77 | inactive

12 entries from above, sorted by “TNF reporter robust z-score”, descending:
target gene | TNF reporter robust z-score | Call
KCNH6 (potassium voltage-gated channel subfamily H member 6) | 0.75 | inactive
TCFL5 (transcription factor like 5) | 0.52 | inactive
TCFL5 (transcription factor like 5) | 0.34 | inactive
CENPBD1P (CENPB DNA-binding domain containing 1, pseudogene) | 0.25 | inactive
IL26 (interleukin 26) | 0.22 | inactive
CENPBD1P (CENPB DNA-binding domain containing 1, pseudogene) | -0.15 | inactive
TCFL5 (transcription factor like 5) | -0.35 | inactive
IL26 (interleukin 26) | -0.52 | inactive
CENPBD1P (CENPB DNA-binding domain containing 1, pseudogene) | -0.54 | inactive
IL26 (interleukin 26) | -0.64 | inactive
CENPBD1P (CENPB DNA-binding domain containing 1, pseudogene) | -0.73 | inactive
TCFL5 (transcription factor like 5) | -0.76 | inactive

Additional records follow:
target gene | TNF reporter robust z-score | Call
LPIN2 (lipin 2) | -0.62 | inactive
LPIN2 (lipin 2) | 0.48 | inactive
LPIN2 (lipin 2) | 1.53 | inactive
LPIN2 (lipin 2) | -0.31 | inactive
YEATS2 (YEATS domain containing 2) | -0.61 | inactive
YEATS2 (YEATS domain containing 2) | 0.4 | inactive
YEATS2 (YEATS domain containing 2) | -0.23 | inactive
YEATS2 (YEATS domain containing 2) | -0.17 | inactive
RBM4B (RNA binding motif protein 4B) | 0.89 | inactive
RBM4B (RNA binding motif protein 4B) | -0.41 | inactive
RBM4B (RNA binding motif protein 4B) | -0.64 | inactive
RBM4B (RNA binding motif protein 4B) | -0.19 | inactive
SAXO4 (stabilizer of axonemal microtubules 4) | -0.13 | inactive
SAXO4 (stabilizer of axonemal microtubules 4) | 0.4 | inactive
SAXO4 (stabilizer of axonemal microtubules 4) | -0.38 | inactive
SAXO4 (stabilizer of axonemal microtubules 4) | 0.07 | inactive
CCDC122 (coiled-coil domain containing 122) | 0.2 | inactive
CCDC122 (coiled-coil domain containing 122) | -0.21 | inactive
CCDC122 (coiled-coil domain containing 122) | 0.34 | inactive
CCDC122 (coiled-coil domain containing 122) | -0.43 | inactive
NADSYN1 (NAD synthetase 1) | -0.67 | inactive
NADSYN1 (NAD synthetase 1) | -0.37 | inactive
NADSYN1 (NAD synthetase 1) | -0.04 | inactive
NADSYN1 (NAD synthetase 1) | -0.19 | inactive
OLAH (oleoyl-ACP hydrolase) | 0.9 | inactive
OLAH (oleoyl-ACP hydrolase) | 2.65 | inactive
OLAH (oleoyl-ACP hydrolase) | 0.44 | inactive
OLAH (oleoyl-ACP hydrolase) | 1.87 | inactive
BIVM (basic, immunoglobulin-like variable motif containing) | 1.3 | inactive
BIVM (basic, immunoglobulin-like variable motif containing) | 1.5 | inactive
BIVM (basic, immunoglobulin-like variable motif containing) | 1.01 | inactive
BIVM (basic, immunoglobulin-like variable motif containing) | 0.85 | inactive
TM2D1 (TM2 domain containing 1) | -0.59 | inactive
TM2D1 (TM2 domain containing 1) | -0.73 | inactive
TM2D1 (TM2 domain containing 1) | -1.05 | inactive
TM2D1 (TM2 domain containing 1) | -0.35 | inactive
UQCRFS1 | -0.34 | inactive
UQCRFS1 | 0.12 | inactive
UQCRFS1 | -0.33 | inactive
UQCRFS1 | -0.31 | inactive
LETM1 | -0.8 | inactive
LETM1 | -0.58 | inactive
LETM1 | -0.9 | inactive
LETM1 | -0.88 | inactive
PPFIA4 (PPFI scaffold protein A4) | 0.97 | inactive
PPFIA4 (PPFI scaffold protein A4) | 0.41 | inactive
PPFIA4 (PPFI scaffold protein A4) | -0.08 | inactive
PPFIA4 (PPFI scaffold protein A4) | 1.21 | inactive
STEAP1 (STEAP family member 1) | -0.27 | inactive
STEAP1 (STEAP family member 1) | 0.74 | inactive
STEAP1 (STEAP family member 1) | -0.18 | inactive
STEAP1 (STEAP family member 1) | -0.43 | inactive
HOMER3 (homer scaffold protein 3) | -1.03 | inactive
HOMER3 (homer scaffold protein 3) | 0.22 | inactive
HOMER3 (homer scaffold protein 3) | -0.43 | inactive
HOMER3 (homer scaffold protein 3) | 0.39 | inactive
